Results reported in PubChem BioAssay AID588590 (National Center for Advancing Translational Sciences (NCATS), 2011).
“And” between values parts separate entries of the source, which are not always exact repeats. Equal values may be shown once. The campaign covered roughly 390,000 compounds. About 4,000 (1%) were called active. This list was built around the results that the source calls inconclusive (neither active nor inactive); the mix of calls is not that of the screen. The call rests on the fitted dose curve; in most records, active means well fitted inhibition curve with a large enough effect; inconclusive means small, poorly fitted or top-dose-only effect, or another doubt; inactive means no such curve, though single readings can be large or run the other way. Potencies of inconclusive entries are doubtful fits and often do not repeat.

Chains of the proteins cited; added tags and fusions are not shown. Lines headed by an entry give the natural chain unless they say otherwise; changes in a name come on top.
UniProt Q9UNA4: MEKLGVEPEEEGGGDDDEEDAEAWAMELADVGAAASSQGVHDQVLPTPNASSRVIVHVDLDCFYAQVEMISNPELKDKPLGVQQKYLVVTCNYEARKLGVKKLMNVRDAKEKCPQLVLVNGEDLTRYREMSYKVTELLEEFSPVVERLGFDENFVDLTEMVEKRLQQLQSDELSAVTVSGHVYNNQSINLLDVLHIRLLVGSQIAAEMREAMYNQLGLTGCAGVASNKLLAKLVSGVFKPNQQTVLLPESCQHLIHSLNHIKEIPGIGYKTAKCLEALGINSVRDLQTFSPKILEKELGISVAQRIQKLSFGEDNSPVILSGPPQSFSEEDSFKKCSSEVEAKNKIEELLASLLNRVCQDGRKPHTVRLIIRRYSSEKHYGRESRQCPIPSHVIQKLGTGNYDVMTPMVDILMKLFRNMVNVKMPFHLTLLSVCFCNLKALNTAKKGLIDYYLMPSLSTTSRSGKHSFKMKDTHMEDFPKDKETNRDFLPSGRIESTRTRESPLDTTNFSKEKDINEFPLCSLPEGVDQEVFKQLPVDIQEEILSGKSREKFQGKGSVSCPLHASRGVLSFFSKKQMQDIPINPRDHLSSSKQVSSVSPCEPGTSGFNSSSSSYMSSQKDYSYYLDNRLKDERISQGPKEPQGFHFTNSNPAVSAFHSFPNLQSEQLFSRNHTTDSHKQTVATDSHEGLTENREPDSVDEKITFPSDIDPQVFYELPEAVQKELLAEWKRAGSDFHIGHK

The molecules below were run against DNA polymerase iota (Homo sapiens) (UniProt Q9UNA4) (assay: qHTS for Inhibitors of Polymerase Iota). Settings: Pol iota fluorescent replication assay, 10 min; series mostly up to 115 µM; activity, negative = inhibition: at the top concentration.
Outline: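 Fluorescent replication assay read twice, at 0 min and 10 min after adding 50 nM (final) substrate. Enzyme (10 nM) and compounds were first incubated 15 min at room temperature; enzyme-free buffer wells were negative controls.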
Potency means the concentration at half of the fitted maximal effect.

SMILES	Potency	activity, negative = inhibition
COC(=O)CCCC1=CC2=CC(=O)C(C)(OC(=O)c3cccs3)C(=O)C2=CN1Cc1ccccc1 (stereo unspecified)	inconclusive: 2 µM [inhibitor, partial curve, poor fit]	
O=C(O)c1cc([N+](=O)[O-])cc2c1C=Cc1ccccc1O2	inconclusive: 14.1 µM [inhibitor, full curve]	
COc1ccc(N2CC(C(=O)N[C@@H](C)C(=O)NCc3ccccc3OC)CC2=O)cc1 (stereo partly specified)		inactive: 16.1%
Cc1ccccc1-c1cc(C(=O)Nc2sc(C)c(C)c2C(N)=O)c2ccccc2n1	inconclusive: 11.2 µM [inhibitor, partial curve, poor fit]	
O=C(C=Cc1ccc2c(c1)OCO2)c1ccccc1	inconclusive: 17.8 µM [inhibitor, full curve, poor fit]	
CC1CCN(C(=O)Cn2cc(SCC(=O)NCc3ccccc3Cl)c3ccccc32)CC1		inactive: 2.36%
CCN(CC1COc2ccccc2O1)C(=O)CN1C(=O)NC(C)(c2ccccc2)C1=O (stereo unspecified)	inconclusive: 100 µM [inhibitor, single point]	
CCC(C(=O)Nc1cccc(Cl)c1C)n1nc(-c2ccc(C)cc2)ccc1=O (stereo unspecified)	inconclusive: 89.1 µM [inhibitor, partial curve, poor fit]	
COc1ccc(OCC(=O)Nc2cccc(-c3nc4ccccc4o3)c2)cc1	inconclusive: 35.5 µM [inhibitor, full curve, poor fit]	
CCN(CC)CCNC(=O)c1ccc(NC(=O)COc2ccccc2F)cc1	inconclusive: 39.8 µM [inhibitor, single point]	
COc1cccc(NC(=O)Nc2ccc(C(C)(C)C)cc2)c1	inconclusive: 89.1 µM [inhibitor, single point]	
CC(=O)OCC1=C(C(=O)O)N2C(=O)C(NC(=O)c3ccc(COc4c(C)cccc4Cl)o3)C2SC1 (stereo unspecified)	active: 28.2 µM	
CCCCn1c(=NC(=O)c2ccco2)c(C(=O)OCC)cc2c(=O)n3ccccc3nc21	inconclusive: 35.5 µM [inhibitor, single point]	
Cc1ccc(-c2ccc(/C=N/N=C3/NC(=O)C(CC(=O)O)S3)o2)c([N+](=O)[O-])c1 (stereo unspecified)		inactive: 6.44%
CCN(CC)C(=O)c1ccccc1NS(C)(=O)=O	inconclusive: 89.1 µM [inhibitor, partial curve]	
O=C(NCCCc1ccccc1)C1CCN(c2nnc(-n3cccc3)s2)CC1	inconclusive: 100 µM [inhibitor, partial curve, poor fit]	
O=C(Nc1cccc(S(=O)(=O)NC2=NCCCCC2)c1)C1COc2ccccc2O1 (stereo unspecified)	inconclusive: 56.2 µM [inhibitor, partial curve, poor fit]	
COc1cc(OC)cc(-c2c(-c3ccc(F)cc3)c3cc(-c4cnc(OC)nc4)ccc3n2C)c1		inactive: 6.09%
Cc1ccc(Cc2nc3ccccc3nc2SCC(=O)NCCC(C)C)cc1		inactive: -1.43%
O=C(Nc1ccc(NC(=O)c2ccco2)c(Cl)c1)c1ccc2c(c1)OCCO2	inconclusive: 22.4 µM [inhibitor, full curve]	
CCn1nc([N+](=O)[O-])c(C(C#N)c2nc3cc(C(F)(F)F)ccc3s2)c(Cl)c1=O (stereo unspecified)	inconclusive: 28.2 µM [inhibitor, partial curve, poor fit]	

SMILES	Potency	activity, negative = inhibition
Cc1c(C(=O)c2no[n+]([O-])c2C(=O)c2cnn(C)c2C)cnn1C	inconclusive: 14.1 µM [inhibitor, partial curve, poor fit]	
CCOc1ccc(S(N)(=O)=O)cc1-c1nc2c(C(C)(C)C)nn(C)c2c(=O)[nH]1	inconclusive: 89.1 µM [inhibitor, partial curve, poor fit]	
CCC(Sc1nc(-c2ccccc2)c(C#N)c(=O)[nH]1)C(=O)Nc1nnc(C)s1 (stereo unspecified)	inconclusive: 10 µM [inhibitor, partial curve]	
Cc1cccc(-n2c(O)c(C=Nc3ccccc3O)c3ccccc3c2=O)n1	inconclusive: 15.8 µM [inhibitor, partial curve, poor fit]	
CC1=NN(c2nc(-c3ccc(C)cc3)cs2)C(=O)C1N=Nc1cccc(O)c1 (stereo unspecified)	inconclusive: 31.6 µM [inhibitor, partial curve, poor fit]	
Nc1scc2c(C(=O)O)nn(-c3ccccc3)c(=O)c12	inconclusive: 20 µM [inhibitor, partial curve, poor fit]	
COc1ccc(S(=O)(=O)c2nnn(-c3cc(Cl)c(OC)cc3OC)c2C)cc1	inconclusive: 79.4 µM [inhibitor, single point]	
COc1ccc(C(=O)Nc2ccc(O)c3ccccc23)cc1	inconclusive: 14.1 µM [inhibitor, partial curve]	
Cc1ccc(C(=O)N2CCC3(CC2)Oc2ccc(F)cc2C(=O)C32CC(c3cccnc3)=NO2)s1 (stereo unspecified)	inconclusive: 14.1 µM [inhibitor, partial curve, poor fit]	
COc1ccccc1N1CCN(CC(=O)NCc2ccc(Cl)cc2)CC1	inconclusive: 14.1 µM [inhibitor, partial curve, poor fit]	
O=C(O)c1ccc(N2Cc3ccccc3C2)cc1O	inconclusive: 11.2 µM [inhibitor, full curve, poor fit]	
O=C(NCCCn1ccnc1)c1cc(C(=O)C2CCCCC2)c[nH]1		inactive: 60.9%
C=CCNS(=O)(=O)c1ccc(C(=O)OCc2cc(=O)oc3cc(OC)ccc23)cc1	inconclusive: 20 µM [inhibitor, full curve, poor fit]	
CCNCCOC(c1ccccc1)c1ccccc1	inconclusive: 7.08 µM [inhibitor, partial curve, poor fit]	
CCOc1ccc(N2C(=O)S/C(=C\c3ccc(O)c(OCC)c3)C2=O)cc1	inconclusive: 35.5 µM [inhibitor, single point]	
O=C(COc1ccc(Cl)cc1)OCc1cc(=O)n2nc(-c3cccs3)sc2n1	inconclusive: 89.1 µM [inhibitor, single point]	
CSc1nc2n(n1)C(c1ccccn1)C1=C(CC(C)(C)CC1=O)N2 (stereo unspecified)	inconclusive: 112 µM [inhibitor, partial curve, poor fit]	
C/C(N)=C(/C#N)C(=O)CSc1nnc(SCc2ccc(Cl)cc2)s1	inconclusive: 31.6 µM [inhibitor, single point] and inconclusive: 50.1 µM [inhibitor, partial curve]	
COc1ccc(C(=O)Nc2nnc(S(=O)(=O)N3CCCCCC3)s2)cc1OC	inconclusive: 11.2 µM [inhibitor, partial curve, poor fit]	
O=C(O)COc1ccccc1C(Nc1ccccn1)c1cc(Cl)c2cccnc2c1O (stereo unspecified)		inactive: -7.76%
Cc1cc(C)n(CC(O)Cn2c3ccccc3c3ccccc32)n1 (stereo unspecified)	inconclusive: 25.1 µM [inhibitor, partial curve, poor fit]	

SMILES	Potency	activity, negative = inhibition
O=C(NCC(=O)N(Cc1ccc(F)cc1)C(C(=O)NC1CCCC1)c1ccco1)c1ccco1 (stereo unspecified)	inconclusive: 39.8 µM [inhibitor, single point]	
Cc1cc(C(=O)COC(=O)c2cc(Cl)ccc2N)c(C)n1Cc1ccco1	inconclusive: 25.1 µM [inhibitor, single point]	
CCCn1cc(S(=O)(=O)c2ccccc2)c(=O)c2cc(F)c(N3CCCCC3)cc21	inconclusive: 89.1 µM [inhibitor, partial curve, poor fit]	
CCOC(=O)c1cnc2c(ccc3ccccc32)c1Nc1ccccc1OCC		inactive: 35.8%
CCC1Nc2ncnc(N3CCCCC3)c2N(Cc2ccccc2)C1=O (stereo unspecified)	inconclusive: 20 µM [inhibitor, full curve]	
COc1ccc(OC)c(C(c2nnnn2C(C)(C)C)N2CCc3ccccc3C2)c1 (stereo unspecified)	inconclusive: 3.55 µM [inhibitor, full curve, poor fit]	
CC(C)CS(=O)(=O)c1oc(-c2ccc(F)cc2)nc1S(=O)(=O)c1ccccc1	inconclusive: 14.1 µM [inhibitor, partial curve, poor fit]	
CCN(CC)c1nc2c3c(nc4c(c3c1C#N)CC(=O)N4c1ccc(Cl)cc1)NC(C)=N2	inconclusive: 25.1 µM [inhibitor, single point]	
O=C1CC(=O)N2N=C(c3ccc([N+](=O)[O-])cc3)SC2=N1	inconclusive: 3.55 µM [inhibitor, full curve, poor fit]	
O=C(N/N=C/c1ccccn1)c1ccco1	inconclusive: 3.55 µM [inhibitor, full curve, poor fit]	
Cc1ccn2c(=O)c(C(=O)NCCc3ccccc3)c(O)nc2c1		inactive: -4.61%
O=C(NC1CC(=O)N(c2cccc(F)c2)C1)c1ccc(S(=O)(=O)N2CCCC2)cc1 (stereo unspecified)		inactive: 19.6%
CCCCCc1cc[n+](CC(=O)c2ccccc2)cc1	inconclusive: 100 µM [inhibitor, single point]	
CCOc1ccccc1CNC(=O)Cn1c(-c2ccccc2)cc(C(C)=O)c1C		inactive: 28.5%
FC(F)(F)c1nnc2ccc(NCn3nnc4ccccc43)nn12		inactive: -0.0775%
Cc1cccc(OCCCCn2c(C3CC(=O)N(c4ccccc4Cl)C3)nc3ccccc32)c1 (stereo unspecified)	inconclusive: 7.94 µM [inhibitor, full curve, poor fit]	
COc1cc(/C=C/C(=O)OCC(=O)NNC(=O)c2cc(Cl)ccc2OC)ccc1O		inactive: 20.9%
CCOC(=O)c1c(C)[nH]c(C(=O)C(C)OC(=O)c2cccc(OCc3c(C)noc3C)c2)c1C (stereo unspecified)	inconclusive: 50.1 µM [inhibitor, partial curve, poor fit]	
COc1ccc(/C=N/NC(=O)c2ccc(C)cc2)cc1CN1CCN(c2ccc(F)cc2)CC1		inactive: 8.77%

5 successive entries out of the list so far:
SMILES	Potency	activity, negative = inhibition
CCC(C(=O)Nc1cccc(Cl)c1C)n1nc(-c2ccc(C)cc2)ccc1=O (stereo unspecified)	inconclusive: 89.1 µM [inhibitor, partial curve, poor fit]	
COc1ccc(OCC(=O)Nc2cccc(-c3nc4ccccc4o3)c2)cc1	inconclusive: 35.5 µM [inhibitor, full curve, poor fit]	
CCN(CC)CCNC(=O)c1ccc(NC(=O)COc2ccccc2F)cc1	inconclusive: 39.8 µM [inhibitor, single point]	
COc1cccc(NC(=O)Nc2ccc(C(C)(C)C)cc2)c1	inconclusive: 89.1 µM [inhibitor, single point]	
CC(=O)OCC1=C(C(=O)O)N2C(=O)C(NC(=O)c3ccc(COc4c(C)cccc4Cl)o3)C2SC1 (stereo unspecified)	active: 28.2 µM	
